The test system of the experiment is calcium channels. It is filed as cell-based, rats. Conditions: read-out: IC50 for blocking calcium channels; pH 7.4.

For orientation: IC50 means the concentration that gives 50% inhibition. Turning to `COC(=O)C1=C(C)NC(C)=C(C(=O)OC)C1c1ccccc1[N+](=O)[O-]` [Nifedipine], the IC50 came out at 0.033 µM.
